{"source": "PubChem BioAssay AID1224830 (NIAID, 2016)", "purpose": "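Host factors that control LPS-induced TNF expression in human macrophages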 (primary screen)", "cells": "human THP-1 monocytic leukaemia cells, TNF dual-luciferase reporter clone, PMA-differentiated to macrophage-like cells", "reagent": "siRNA pool against human genes, 50 nM", "time to read-out": "LPS for 4 h, given about 3 days after siRNA transfection", "treatment": "bacterial LPS (TLR4 ligand), 10 ng/ml", "measurement": "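Ratio of firefly to renilla light, scaled to the plate median and expressed as a robust z-score per replicate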", "reading the numbers": "TNF reporter robust z-score: higher = stronger TNF reporter response to LPS", "call rule": "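Each well counts as active if its z-score is over 2.8 or under -1.5; controls are left without a call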", "note": "The deposit covers about 18,000 reagents; below is a part drawn at random. About 2,900 of all reagents (16%) were called active. 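Calls are made per well; low scores hint the gene aids the LPS response, high scores that it dampens it.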 Repeated entries: four replicate wells of each siRNA pool."}
{"Target gene":"MAPKAP1","TNF reporter robust z-score":2.39,"Outcome":"inactive"}
{"Target gene":"MAPKAP1","TNF reporter robust z-score":0.93,"Outcome":"inactive"}
{"Target gene":"MAPKAP1","TNF reporter robust z-score":0.34,"Outcome":"inactive"}
{"Target gene":"MAPKAP1","TNF reporter robust z-score":1.19,"Outcome":"inactive"}
{"Target gene":"SALL3","TNF reporter robust z-score":-1.65,"Outcome":"active"}
{"Target gene":"SALL3","TNF reporter robust z-score":-1.03,"Outcome":"inactive"}
{"Target gene":"SALL3","TNF reporter robust z-score":-1.45,"Outcome":"inactive"}
{"Target gene":"SALL3","TNF reporter robust z-score":-1.31,"Outcome":"inactive"}
{"Target gene":"UGT1A9","TNF reporter robust z-score":-0.6,"Outcome":"inactive"}
{"Target gene":"UGT1A9","TNF reporter robust z-score":-0.13,"Outcome":"inactive"}
{"Target gene":"UGT1A9","TNF reporter robust z-score":-0.75,"Outcome":"inactive"}
{"Target gene":"UGT1A9","TNF reporter robust z-score":0.03,"Outcome":"inactive"}

The list goes on (2 carried over from the part before).
{"Target gene":"UGT1A9","TNF reporter robust z-score":-0.75,"Outcome":"inactive"}
{"Target gene":"UGT1A9","TNF reporter robust z-score":0.03,"Outcome":"inactive"}
{"Target gene":"TCERG1","TNF reporter robust z-score":-0.72,"Outcome":"inactive"}
{"Target gene":"TCERG1","TNF reporter robust z-score":1.03,"Outcome":"inactive"}
{"Target gene":"TCERG1","TNF reporter robust z-score":0.24,"Outcome":"inactive"}
{"Target gene":"TCERG1","TNF reporter robust z-score":0.7,"Outcome":"inactive"}
{"Target gene":"GPAT3","TNF reporter robust z-score":0.22,"Outcome":"inactive"}
{"Target gene":"GPAT3","TNF reporter robust z-score":0.42,"Outcome":"inactive"}
{"Target gene":"GPAT3","TNF reporter robust z-score":-1.3,"Outcome":"inactive"}
{"Target gene":"GPAT3","TNF reporter robust z-score":0.7,"Outcome":"inactive"}
